# From publication PMC10562255
# Protein sequences, listed by entry. Tags and fused reporters are not part of them.
# UniProt Q9UH17, whole entry Y13D/Y28S/Y83D/W127S/Y162D/Y191H: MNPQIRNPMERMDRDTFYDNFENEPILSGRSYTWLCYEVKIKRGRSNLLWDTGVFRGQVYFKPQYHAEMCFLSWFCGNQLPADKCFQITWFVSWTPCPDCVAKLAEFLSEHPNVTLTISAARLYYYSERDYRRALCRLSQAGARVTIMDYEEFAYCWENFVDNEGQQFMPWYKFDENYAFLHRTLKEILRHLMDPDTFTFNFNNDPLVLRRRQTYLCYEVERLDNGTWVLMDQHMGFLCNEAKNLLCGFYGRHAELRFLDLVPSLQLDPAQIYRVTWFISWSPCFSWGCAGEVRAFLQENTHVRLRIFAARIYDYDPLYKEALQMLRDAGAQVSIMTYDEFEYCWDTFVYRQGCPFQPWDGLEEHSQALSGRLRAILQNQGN
# The exact form of at least one protein or probe is not confirmed. Weaker means in comparison with the reference protein, sequence or condition of that experiment. For part of these data: At least one verdict was read from the data and is not stated in words by the source.
# How the values were obtained:
# [1] = biological target: A3B Mut2 Y13D,Y28S,Y83D,W127S,Y162D,Y191H (human) (UniProt Q9UH17); experiment: EMSA with unlabeled competitor; conditions: defective binding versus WT, Competition EMSA: 25 mM HEPES pH 7.4, 50 mM NaCl, 0.4 U/ul RNase inhibitor, room temperature, 5 min binding plus 10 min with competitor, recombinant protein, protein details: C-terminal mycHis, label: 5' IRDye800CW, unlabeled as competitor
# [2] = biological target: APOBEC3B (A3B) WT (human) (UniProt Q9UH17); experiment: EMSA; conditions: Competition EMSA: 25 mM HEPES pH 7.4, 50 mM NaCl, 0.4 U/ul RNase inhibitor, room temperature, 5 min binding plus 10 min with competitor, recombinant protein, protein details: C-terminal mycHis
# [3] = NEB2 buffer, strand 3 is RNA, label: 5' IRDye700 on strand 1
sequence,measurement,setting,value
ATTAGTCATATGGAT [short 15-mer ssDNA (A3B DNA EMSA)],binding result,[1]; single-stranded DNA,binds more weakly
AUUAGUCAUAUGGAU [short 15-mer ssRNA (A3B RNA EMSA)],binding result,[1],binds more weakly
GTGAGAGATAGGTGGTTGTATGATGATGAGGTCAGGATAGTAGGATAGTGTGGATAGGTGAG (double strand) [long dsDNA],binding result,"[2]; lesser extent than R-loop, ssDNA, ssRNA, label: 5' IRDye700 on strand 1",binds more weakly
GTGAGAGATAGGTGGTTGTATGATGATGAGGTCAGGATAGTAGGATAGTGTGGATAGGTGAG / CTCACCTATCCACACTATCTGTAAGTTAAGTAAGTTGGTGCATACAACCACCTATCTCTCAC / AACAACCACGCACACCAACUUACUUAACUUACA [R-loop (long)],binding result,[2]; [3],binds
GTGAGAGATAGGTGGTTGTATGATGATGAGGTCAGGATAGTAGGATAGTGTGGATAGGTGAG / CTCACCTATCCACACTATCTGTAAGTTAAGTAAGTTGGTGCATACAACCACCTATCTCTCAC / CACCAACUUACUUAACUUACA [R-loop (short)],binding result,[2]; [3],binds
GTGAGAGATAGGTGGTTGTATGATGATGAGGTCAGGATAGTAGGATAGTGTGGATAGGTGAG [long 62-mer ssDNA],binding result,"[2]; label: 5' IRDye700, single-stranded DNA",binds
